Primary screen of a compound library

Sequences of proteins named here, by UniProt entry; tags and fusion partners are left off.
UniProt E9BF75, entry or part of it: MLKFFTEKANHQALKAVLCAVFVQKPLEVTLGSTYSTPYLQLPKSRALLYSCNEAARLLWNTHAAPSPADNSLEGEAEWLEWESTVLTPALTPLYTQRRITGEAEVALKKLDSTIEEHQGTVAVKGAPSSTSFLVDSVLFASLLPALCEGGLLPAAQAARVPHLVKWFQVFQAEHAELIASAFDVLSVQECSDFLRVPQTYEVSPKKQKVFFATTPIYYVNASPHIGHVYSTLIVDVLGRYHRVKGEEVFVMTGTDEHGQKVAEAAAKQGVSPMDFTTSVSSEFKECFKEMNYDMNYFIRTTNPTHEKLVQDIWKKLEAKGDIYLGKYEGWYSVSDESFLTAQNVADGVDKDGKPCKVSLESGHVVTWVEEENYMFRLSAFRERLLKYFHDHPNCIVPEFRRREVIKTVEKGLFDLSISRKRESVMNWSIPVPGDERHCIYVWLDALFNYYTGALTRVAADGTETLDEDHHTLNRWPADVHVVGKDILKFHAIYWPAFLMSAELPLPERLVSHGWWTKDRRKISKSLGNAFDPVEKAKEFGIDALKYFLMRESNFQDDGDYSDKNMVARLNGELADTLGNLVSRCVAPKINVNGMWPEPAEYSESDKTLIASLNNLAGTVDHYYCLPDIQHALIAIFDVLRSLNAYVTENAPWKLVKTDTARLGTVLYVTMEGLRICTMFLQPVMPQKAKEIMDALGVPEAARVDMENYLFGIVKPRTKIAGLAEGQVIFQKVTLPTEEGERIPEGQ

Data taken from ChEMBL document CHEMBL3988442, “University of Dundee, Small-Polar-MMV Screening Library” (2021).

Results are percentages, as filed. The record does not define 0% and 100%; most values in the screen are far below 50% and negative numbers occur (in some assays of this library far below -100). The compounds are a random part of those screened. A dash means the value is not listed here; it may have been measured.

A: 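Assay on Mycobacterium tuberculosis, filed only as a heat shock assay from Cornell; the read-out is not stated. The concentration is filed as 10 mM, unlikely as a test dose, so the dose is not known. The record gives no direction; compounds that gave an IC50 in retests scored well above the rest, so higher reads as stronger inhibition. Size under these conditions: about 69,000 compounds, about 930 of them at 50% or above in at least one test.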
B: 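Primary screen of methionyl-tRNA synthetase; the read-out is not stated. Target: Methionyl-tRNA synthetase (putative), Leishmania donovani (UniProt E9BF75). The test concentration is not given. Values are per cent inhibition. Of about 68,000 compounds tested this way, about 24 (0.035%) reached 50% or more in at least one test.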
C: 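Whole-cell assay for inhibitors of Mycobacterium tuberculosis growth, labelled Cornell in the record; the read-out is not stated. The concentration is filed as 10 mM, unlikely as a test dose, so the dose is not known. The record gives no direction; compounds strong in two other growth screens of this library score well above the rest, so higher reads as stronger inhibition. Of about 53,000 compounds tested this way, about 900 (1.7%) reached 50% or more in at least one test.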

| structure | A | B | C |
|---|---|---|---|
| `CCS(=O)(=O)NCC(=O)N1CCC(c2cc3ccccc3[nH]2)CC1` | 1.654 | 14.29 | - |
| `COc1ccccc1CN(CC1CCCO1)C(=O)c1scnc1C` (stereo not given) | -26.36 | 10.15 | - |
| `COc1cc(CCC(=O)N2CCC(c3cnccn3)CC2)on1` | 8.55 | 16.56 | 43.58 |
| `Cc1cc(CSc2ccccn2)on1` | -0.9517 | 10.65 | -19.27 |
| `CCCC(=O)N1CCC2(CC1)OCCO2` | 19.58 | 9.399 | -8.757 |
| `Fc1cccc2[nH]c(CN3CCc4cncnc4C3)nc12` | 4.816 | 21.33 | 10.34 |
| `COCCN1C(=O)[C@]2(CC[C@@H]3CN(C(=O)NC(C)C)C[C@@H]32)N=C1C` | - | 6.189 | - |
| `Cc1ccnc2c1NC(=O)CN2C(=O)CCC(F)(F)F` | 16.86 | 16.11 | 23.49 |
| `O=C(N1CCOCC1)N1CCc2ncc(CN3CCCCC3)n2CC1.O=C(O)C(F)(F)F` | 11.43 | - | 15.78 |
| `Fc1cnc(N2CC[C@@H](N3CCOCC3)[C@@H]2Cc2ccncc2)nc1.O=C(O)C(F)(F)F.O=C(O)C(F)(F)F` | -34.82 | - | 14.67 |
| `CCCc1nc(N2CCCN(c3ncccn3)CC2)c2cnn(C)c2n1` | 13.86 | 0.5115 | -31.07 |
| `COc1ccc(F)cc1C(=O)N1CCn2c(nnc2C(F)(F)F)C1` | 4.898 | 23.1 | -0.2385 |
| `CCn1c(C)nnc1CN(C)C1CCN(CCCSC)C1` (stereo not given) | -9.015 | 13.81 | - |
| `COc1c(CNC2CCc3cc(Cl)ccc32)c(C)nn1C` (stereo not given) | -0.2363 | 15.3 | - |
| `Cc1noc(C)c1CN1CCO[C@H]2CN(CC3CC3)C[C@H]21` | - | 13.3 | - |
| `Cc1nonc1OCCNC(=O)CCCc1ccc(Cl)cc1` | -5.836 | 11.05 | 22.5 |
| `COC(=O)CN1CCSC(c2ccccc2)C1` (stereo not given) | -19.49 | 13.6 | 13.15 |
| `NS(=O)(=O)N1CCc2ccc(NC(=O)CCc3ccncc3)cc21` | -20.43 | 16.85 | -6.411 |
| `Oc1cccc(CN2CCN(c3nccc(CCC(F)(F)F)n3)CC2)c1` | -20.83 | -5.16 | 25.48 |
| `Cc1cccc(-n2c(C)cc(C(=O)NS(C)(=O)=O)c2C)c1` | -8.122 | 14.93 | - |
| `COc1ccc(CNC(=O)c2cc3c(nc2O)CCC(C)C3)cc1` (stereo not given) | 10.67 | -0.2597 | -3.76 |
| `c1cc(CN2CCCN(c3ccc4cc[nH]c4n3)CC2)ccn1` | -25.17 | 6.143 | -9.703 |
| `CN1CCN(C2CCOCC2)CC12CCC(=O)N(CC1CC1)CC2` (stereo not given) | 4.962 | 5.115 | 13.19 |
| `O=S(=O)(c1ccccc1)N1CCCCC1c1cc[nH]n1` (stereo not given) | -26.1 | 1.049 | - |
| `COC(C)(C)CC(C)NC(=O)Nc1ccccn1` (stereo not given) | -10.74 | 10.68 | - |
| `CC(C)C(NC(=O)C1CC1)c1cc(O)nc(-c2cccnc2)n1` (stereo not given) | 5.43 | 8.721 | 40.47 |
| `Fc1cnc(NCC2Cn3nnc(-c4ccccc4)c3CO2)nc1` (stereo not given) | -14.09 | 8.791 | -19.51 |
| `Cc1nc(N2CCCC2C(=O)NCc2ccsc2)nc2ccccc12` (stereo not given) | 9.435 | 14.81 | 11.12 |
| `CC(=O)Nc1ccc(F)c(S(=O)(=O)NC(C)(C)C)c1` | -8.795 | 21.87 | 40.62 |
| `Cc1cc(NC(=O)NCc2ccc(S(=O)(=O)N3CCCC3)s2)no1` | -0.6771 | 5.707 | 12.11 |
| `CN(C)C(=O)CO[C@@H]1CC[C@H]2[C@H]1OCCN2c1ncccn1` | - | 4.498 | - |
| `CC1CCc2n[nH]c(C(=O)NCCCc3ccco3)c2C1` (stereo not given) | 2.982 | 9.032 | 22.35 |
| `c1ncn(CC2CN(Cc3nc(C4CC4)no3)CCO2)n1` (stereo not given) | -18.15 | 10.61 | - |
| `c1csc(-c2nc(CN3CCOC(Cn4cccn4)C3)co2)c1` (stereo not given) | -6.862 | 13.73 | 1.205 |
| `O=S(=O)(NCC1(O)CCOc2ccccc21)c1ccccc1Br` (stereo not given) | 7.881 | 10.84 | 27.56 |
| `CC(=O)N1CCCN(C(=O)NCCNc2ccccn2)CC1` | 32.76 | 9.206 | - |
| `CC1(C)OC(=O)N(CC(=O)N2CCC(c3ccccc3Cl)C2)C1=O` (stereo not given) | 8.129 | 13.33 | 25.58 |
| `COc1cc(C)c(C2CC(=O)Nc3cc(NS(C)(=O)=O)ccc32)cc1C` (stereo not given) | -7.417 | 13.43 | -50.53 |
| `CCc1cc(=O)n(CC(=O)N2CCCC2)c(-c2ccc(F)cc2)n1` | -24.82 | 20.11 | 28.21 |
| `CC(C)C1CN(S(=O)(=O)c2ccc(C#N)cc2)CCS1` (stereo not given) | -44.15 | 6.069 | 26.61 |
| `CCC(CC)Cn1ncc(N2CCOCC2)cc1=O` | 10.19 | 11.96 | 34.67 |
| `c1cnn(CC2CCCCN2Cc2noc(C3CC3)n2)c1` (stereo not given) | 4.404 | 12.57 | - |
| `O=C(NC1CC1)[C@H]1C[C@H]2OCC[C@H]2N(Cc2ccc(F)cc2)C1` | - | 4.886 | - |
| `CN1CCN(Cc2ccccc2Oc2cncc(C(N)=O)n2)CC1` | -13.73 | 9.42 | -6.829 |

For reference, 5 entries once more:

structure	A	B	C
CN1CCN(Cc2ccccc2Oc2cncc(C(N)=O)n2)CC1	-13.73	9.42	-6.829
Cc1ccnc2c1NC(=O)CN2C(=O)CCC(F)(F)F	16.86	16.11	23.49
CCCc1nc(N2CCCN(c3ncccn3)CC2)c2cnn(C)c2n1	13.86	0.5115	-31.07
COCCN1C(=O)[C@]2(CC[C@@H]3CN(C(=O)NC(C)C)C[C@@H]32)N=C1C	-	6.189	-
CCn1c(C)nnc1CN(C)C1CCN(CCCSC)C1 (stereo not given)	-9.015	13.81	-